The record followed here is patent US20070248590A1, “Modulators of CDC2-like kinases (CLKS) and methods of use thereof” (Sirtris Pharmaceuticals, Inc., priority 2005, published 2007).

By UniProt entry, the sequences of proteins in these tests, tags left out. Residues count along the entry.
UniProt Q96EB6, residues 2-747: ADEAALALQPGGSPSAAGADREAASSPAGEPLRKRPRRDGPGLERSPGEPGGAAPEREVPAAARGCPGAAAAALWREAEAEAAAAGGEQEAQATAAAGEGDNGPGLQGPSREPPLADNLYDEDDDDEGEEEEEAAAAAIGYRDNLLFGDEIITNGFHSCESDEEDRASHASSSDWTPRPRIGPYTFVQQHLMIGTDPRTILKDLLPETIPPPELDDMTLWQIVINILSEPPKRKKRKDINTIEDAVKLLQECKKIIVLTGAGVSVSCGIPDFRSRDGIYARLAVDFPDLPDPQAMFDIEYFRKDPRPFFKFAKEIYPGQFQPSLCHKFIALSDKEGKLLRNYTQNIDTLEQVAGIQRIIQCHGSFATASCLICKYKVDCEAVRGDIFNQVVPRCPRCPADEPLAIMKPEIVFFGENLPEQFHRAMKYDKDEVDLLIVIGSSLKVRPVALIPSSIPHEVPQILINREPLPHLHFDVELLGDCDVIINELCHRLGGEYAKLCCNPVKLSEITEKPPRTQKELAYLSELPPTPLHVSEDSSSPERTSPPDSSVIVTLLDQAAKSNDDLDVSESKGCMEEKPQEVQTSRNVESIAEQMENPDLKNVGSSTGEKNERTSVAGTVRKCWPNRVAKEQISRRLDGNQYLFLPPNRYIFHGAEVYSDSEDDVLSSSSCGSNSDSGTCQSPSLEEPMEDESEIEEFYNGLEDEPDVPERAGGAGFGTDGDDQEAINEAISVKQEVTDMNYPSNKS
UniProt O35491: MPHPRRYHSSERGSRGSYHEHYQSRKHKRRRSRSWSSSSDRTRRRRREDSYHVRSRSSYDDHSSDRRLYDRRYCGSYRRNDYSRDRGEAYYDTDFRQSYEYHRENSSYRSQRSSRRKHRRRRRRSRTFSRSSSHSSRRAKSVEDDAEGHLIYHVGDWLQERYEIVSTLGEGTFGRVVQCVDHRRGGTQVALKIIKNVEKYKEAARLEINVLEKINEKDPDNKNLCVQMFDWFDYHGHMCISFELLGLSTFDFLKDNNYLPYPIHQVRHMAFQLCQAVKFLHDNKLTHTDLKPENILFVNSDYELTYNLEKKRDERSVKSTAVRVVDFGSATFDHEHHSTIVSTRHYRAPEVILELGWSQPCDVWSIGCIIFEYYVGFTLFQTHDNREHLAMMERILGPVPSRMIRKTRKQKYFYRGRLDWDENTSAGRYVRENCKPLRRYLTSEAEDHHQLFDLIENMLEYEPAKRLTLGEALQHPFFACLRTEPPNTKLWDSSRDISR

These are yes or no findings as the source states them, for the method shown. Binding seen in cells or lysates may run through a third protein. Some results given as binding are weak or reduced against the parent protein; the word gives no strength.

The target in this assay is Endogenous Sirt1 of HEK 293 cells (UniProt Q96EB6). In words: co-immunoprecipitation with M2 anti-Flag agarose from HEK 293 cells transfected with Flag-CLK2, western blot.

As to “Flag-CLK2 (mouse CLK2 with an N-terminal Flag tag) (from UniProt O35491 1-499) (enzyme)”, the binding result is reported as “binds”.
